Source: PubChem BioAssay AID493014 (National Center for Advancing Translational Sciences (NCATS), 2011)
The campaign covered roughly 340,000 compounds. About 170 (0.05%) were called active. Inconclusive results, whose numbers are uncertain, are shown with a selection of clear calls. Calls come from the whole dose curve; as a rule, active = well fitted inhibition curve with a large enough effect in the signal ratio, with a control signal flat (not every such curve was filed as active); inconclusive = small, poorly fitted or top-dose-only effect, or effect the other way, or a change in a side signal; inactive = flat fitted curve, though single readings scatter; the % refers to the signal ratio. Potencies of inconclusive entries are doubtful fits and often do not repeat.

test: qHTS Assay to Find Inhibitors of Chronic Active B-Cell Receptor Signaling; settings: ABC-DLBCL IkBa-CBG/CBR reporter, luminescence ratio (green luciferase fused to IkBa over red control in TMD8 lymphoma cells), 4 h; activity change, negative = inhibition: at 46.1 µM (top of the series) unless noted;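 for activity change, negative = inhibition: plate controls were basal doxycycline-induced cells for no effect and cells given 10 µM MG132 for full effect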
Method in brief: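 Doxycycline induced both beetle luciferases in TMD8 lymphoma cells; IKK-driven degradation limits the IkappaBalpha-fused green signal, while red luminescence normalises for cell number and nonspecific effects. Compounds tested up to 46 uM, 4 hrs.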
Potency is the fitted concentration of half-maximal effect.

| SMILES | Potency | activity change, negative = inhibition |
| --- | --- | --- |
| O=C(CSc1nc2ccccc2o1)N/N=C/c1ccc(C(=O)O)cc1 | inconclusive: 31.6 µM [rising, single point] | – |
| Cc1ccc(C)c(N2CCN(C(=O)CCCn3c(=O)c4cccn4c4cccnc43)CC2)c1 | – | inconclusive: -13.1% |
| COc1ccc(OC)c(NS(=O)(=O)c2cccc3cccnc23)c1 | – | inactive |
| Clc1ss/c(=N\c2ccccn2)c1Cl | – | inconclusive: 11% |
| CCCOc1nc2c(c(=O)n(C)c(=O)n2C)n1C | – | inconclusive: 17.4% |
| COc1ccc(-n2nc([N+](=O)[O-])c(=NCCc3ccccc3)n2O)cc1 | – | inconclusive: 7.15% |
| CC(C)(C)NC(=O)C(c1ccncc1)N(Cc1ccc(F)cc1)C(=O)c1ccc(-c2ccccc2)[nH]1 (stereo unspecified) | inconclusive: 22.4 µM [rising, single point] | – |
| Cc1ccc(NC(=S)NC(=O)c2ccc(F)cc2)cc1S(=O)(=O)Nc1ccccc1Cl | – | inconclusive: -17.6% |
| Cc1cc(C(=O)CSc2nnc(-c3ccccc3)n2C)c(C)n1C | inconclusive: 29.1 µM [falling, single point] | – |
| C=CCC[C@@H](Cc1ccc(F)cc1)C(=O)O[C@H](CNC(=O)[C@@H](CC=C)CC(=O)N[C@H](CO)Cc1ccccc1)c1ccccc1 | – | inactive |
| O=C(C1=C(O)C(=O)N(c2ncccn2)C1c1ccc(Cl)cc1)c1ccco1 (stereo unspecified) | – | inactive |
| COc1cccc(/C=N/NC(=O)c2cc3c(OC)cccc3[nH]2)c1OC | inconclusive: 10.3 µM [falling, partial curve] | – |
| Cc1ccc(NC(=O)CSc2nncn2-c2ccccn2)cc1Cl | – | inconclusive: 0.892% |
| Cc1c(C(=O)Nc2nccs2)oc2c(Cl)cccc12 | – | inconclusive: 7.36% |
| O=C(Nc1cccnc1)c1cc(-c2cccc(Cl)c2)on1 | inconclusive: 35.5 µM [rising, single point] | – |
| O=C(/C=C/c1ccco1)N/C(=C\c1ccccc1)C(=O)NCCc1nc2ccccc2[nH]1 | inconclusive: 18.4 µM [falling, partial curve] | – |
| COc1ccc(N/C(C)=C2/C(=O)C(=O)N(CCO)C2c2ccc([N+](=O)[O-])cc2)cc1 (stereo unspecified) | – | inconclusive: 8.29% |
| O=C(NCCc1ccccc1F)c1ccc2c(c1)OCCO2 | – | inconclusive: 437% |
| CC(C)NS(=O)(=O)c1ccc(OCC(=O)Nc2ccc3c(c2)OCO3)cc1 | inconclusive: 3.16 µM [falling, single point] | – |
| CN=C(Nc1ccccc1OC)SC1CC(=O)N(c2ccc(C(=O)OC)cc2)C1=O (stereo unspecified) | – | inconclusive: -3.69% |
| CCOC(=O)C1(CCOc2ccccc2)CCN(Cc2nccn2CC)CC1 | – | inconclusive: 0.478% |

Not a retest: five of the compounds above.

| SMILES | Potency | activity change, negative = inhibition |
| --- | --- | --- |
| CCCOc1nc2c(c(=O)n(C)c(=O)n2C)n1C | – | inconclusive: 17.4% |
| COc1ccc(-n2nc([N+](=O)[O-])c(=NCCc3ccccc3)n2O)cc1 | – | inconclusive: 7.15% |
| CC(C)(C)NC(=O)C(c1ccncc1)N(Cc1ccc(F)cc1)C(=O)c1ccc(-c2ccccc2)[nH]1 (stereo unspecified) | inconclusive: 22.4 µM [rising, single point] | – |
| Cc1ccc(NC(=S)NC(=O)c2ccc(F)cc2)cc1S(=O)(=O)Nc1ccccc1Cl | – | inconclusive: -17.6% |
| Cc1cc(C(=O)CSc2nnc(-c3ccccc3)n2C)c(C)n1C | inconclusive: 29.1 µM [falling, single point] | – |
